The other results are listed elsewhere or left out.
Compound: COc1ccc(Cn2ccc3ccc(C(=O)NO)cc32)cc1
Assay: dose-dependent thermal stabilisation call (2D-TPP, DLPTP, 10% FDR) (binary (1 = stabilised)); higher = stabilised by the compound
Conditions: system: HL-60 intact cells; concentration range 0.04-10 µM

Chains of the proteins cited; added tags and fusions are not shown. Lines headed by an entry give the natural chain unless they say otherwise; changes in a name come on top.
UniProt Q04727: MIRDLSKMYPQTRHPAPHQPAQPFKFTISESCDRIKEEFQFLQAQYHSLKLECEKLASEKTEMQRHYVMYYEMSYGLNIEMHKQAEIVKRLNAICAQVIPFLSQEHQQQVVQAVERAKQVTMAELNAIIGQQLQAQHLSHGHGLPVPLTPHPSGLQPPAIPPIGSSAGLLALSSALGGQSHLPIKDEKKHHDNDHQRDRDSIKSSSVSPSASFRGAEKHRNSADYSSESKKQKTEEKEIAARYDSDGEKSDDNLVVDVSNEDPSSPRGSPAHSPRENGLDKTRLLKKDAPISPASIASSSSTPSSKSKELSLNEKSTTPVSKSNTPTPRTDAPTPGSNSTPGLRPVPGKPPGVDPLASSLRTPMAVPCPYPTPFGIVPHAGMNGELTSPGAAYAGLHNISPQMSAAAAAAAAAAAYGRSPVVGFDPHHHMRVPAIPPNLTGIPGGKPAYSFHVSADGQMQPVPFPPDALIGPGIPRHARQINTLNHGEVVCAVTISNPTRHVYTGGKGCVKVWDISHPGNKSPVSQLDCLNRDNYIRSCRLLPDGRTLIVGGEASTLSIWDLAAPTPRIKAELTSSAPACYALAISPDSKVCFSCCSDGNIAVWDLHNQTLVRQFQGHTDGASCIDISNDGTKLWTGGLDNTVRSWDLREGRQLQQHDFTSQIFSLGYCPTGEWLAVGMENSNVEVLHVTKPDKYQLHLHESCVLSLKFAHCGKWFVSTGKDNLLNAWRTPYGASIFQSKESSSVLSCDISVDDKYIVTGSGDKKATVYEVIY
UniProt Q9Y5J7: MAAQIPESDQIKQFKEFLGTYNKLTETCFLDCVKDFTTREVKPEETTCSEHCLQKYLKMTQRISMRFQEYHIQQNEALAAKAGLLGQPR
UniProt Q15025: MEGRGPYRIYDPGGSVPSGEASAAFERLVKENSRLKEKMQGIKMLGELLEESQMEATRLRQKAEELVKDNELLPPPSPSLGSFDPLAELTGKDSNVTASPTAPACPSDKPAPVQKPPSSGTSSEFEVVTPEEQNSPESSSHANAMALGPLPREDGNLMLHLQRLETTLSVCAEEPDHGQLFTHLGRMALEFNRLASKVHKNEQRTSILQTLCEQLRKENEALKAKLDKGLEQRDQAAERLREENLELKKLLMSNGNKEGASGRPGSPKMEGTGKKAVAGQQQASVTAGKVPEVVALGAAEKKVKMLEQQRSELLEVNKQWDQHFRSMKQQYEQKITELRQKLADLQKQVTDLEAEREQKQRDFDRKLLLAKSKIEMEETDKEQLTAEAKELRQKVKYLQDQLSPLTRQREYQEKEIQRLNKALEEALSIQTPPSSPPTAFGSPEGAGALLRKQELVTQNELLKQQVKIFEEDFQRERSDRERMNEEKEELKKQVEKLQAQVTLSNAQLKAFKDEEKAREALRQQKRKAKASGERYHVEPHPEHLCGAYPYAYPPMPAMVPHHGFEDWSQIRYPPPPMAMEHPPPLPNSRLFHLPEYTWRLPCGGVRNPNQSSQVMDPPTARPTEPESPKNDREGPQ
UniProt P52888, whole entry: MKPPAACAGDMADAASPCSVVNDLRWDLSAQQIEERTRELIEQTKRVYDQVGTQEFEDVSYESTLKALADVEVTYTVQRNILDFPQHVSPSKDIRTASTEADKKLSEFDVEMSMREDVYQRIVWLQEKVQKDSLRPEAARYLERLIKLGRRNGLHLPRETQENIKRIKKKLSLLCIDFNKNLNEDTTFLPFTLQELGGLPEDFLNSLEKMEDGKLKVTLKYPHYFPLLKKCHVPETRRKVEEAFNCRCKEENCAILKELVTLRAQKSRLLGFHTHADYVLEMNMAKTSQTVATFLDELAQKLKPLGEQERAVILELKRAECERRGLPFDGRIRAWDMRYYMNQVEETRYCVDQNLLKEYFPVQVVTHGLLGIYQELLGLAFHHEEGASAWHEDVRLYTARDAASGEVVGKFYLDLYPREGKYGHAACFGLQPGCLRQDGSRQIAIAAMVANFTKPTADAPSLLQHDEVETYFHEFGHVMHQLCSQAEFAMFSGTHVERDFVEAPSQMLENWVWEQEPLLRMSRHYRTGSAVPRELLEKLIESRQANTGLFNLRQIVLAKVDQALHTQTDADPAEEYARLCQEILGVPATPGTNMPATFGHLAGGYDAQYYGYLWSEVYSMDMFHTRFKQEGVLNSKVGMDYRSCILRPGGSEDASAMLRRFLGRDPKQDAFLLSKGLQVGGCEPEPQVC
UniProt Q9HD45: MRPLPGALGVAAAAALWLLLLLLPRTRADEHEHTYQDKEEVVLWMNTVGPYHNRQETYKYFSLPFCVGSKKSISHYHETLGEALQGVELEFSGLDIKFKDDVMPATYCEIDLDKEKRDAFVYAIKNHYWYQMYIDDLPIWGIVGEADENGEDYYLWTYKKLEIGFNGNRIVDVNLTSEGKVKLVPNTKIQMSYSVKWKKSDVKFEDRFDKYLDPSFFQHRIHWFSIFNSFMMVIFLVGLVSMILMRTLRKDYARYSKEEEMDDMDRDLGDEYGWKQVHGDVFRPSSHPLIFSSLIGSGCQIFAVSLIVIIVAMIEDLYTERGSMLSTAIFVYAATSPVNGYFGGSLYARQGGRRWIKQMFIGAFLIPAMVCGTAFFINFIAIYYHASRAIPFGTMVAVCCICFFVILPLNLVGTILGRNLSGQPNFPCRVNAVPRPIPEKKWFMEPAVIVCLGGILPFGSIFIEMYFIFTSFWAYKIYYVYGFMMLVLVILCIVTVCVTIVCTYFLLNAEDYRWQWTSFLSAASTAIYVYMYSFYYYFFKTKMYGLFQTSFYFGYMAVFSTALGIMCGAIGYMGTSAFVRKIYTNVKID
UniProt Q9H3S4: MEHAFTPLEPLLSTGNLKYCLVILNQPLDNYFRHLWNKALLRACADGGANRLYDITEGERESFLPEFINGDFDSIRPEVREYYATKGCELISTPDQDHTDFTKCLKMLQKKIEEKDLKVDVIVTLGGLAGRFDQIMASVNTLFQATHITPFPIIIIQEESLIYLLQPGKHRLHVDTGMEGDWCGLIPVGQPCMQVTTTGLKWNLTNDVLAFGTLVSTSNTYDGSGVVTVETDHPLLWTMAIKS
UniProt Q96J01: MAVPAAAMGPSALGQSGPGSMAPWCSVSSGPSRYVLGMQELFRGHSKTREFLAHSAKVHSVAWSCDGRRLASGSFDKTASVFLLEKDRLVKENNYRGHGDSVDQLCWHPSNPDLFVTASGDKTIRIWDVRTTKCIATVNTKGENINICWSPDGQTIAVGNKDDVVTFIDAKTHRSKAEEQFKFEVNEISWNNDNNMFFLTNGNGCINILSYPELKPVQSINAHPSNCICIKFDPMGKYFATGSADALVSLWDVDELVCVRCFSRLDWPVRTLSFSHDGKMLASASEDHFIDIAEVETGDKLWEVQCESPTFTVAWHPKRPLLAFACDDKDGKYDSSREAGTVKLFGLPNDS
UniProt Q15388, whole entry: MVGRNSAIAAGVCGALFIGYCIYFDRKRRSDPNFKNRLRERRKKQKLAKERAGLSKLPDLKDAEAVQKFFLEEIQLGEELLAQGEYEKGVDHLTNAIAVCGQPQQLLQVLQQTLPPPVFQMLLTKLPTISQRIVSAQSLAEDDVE
UniProt Q9Y4G6: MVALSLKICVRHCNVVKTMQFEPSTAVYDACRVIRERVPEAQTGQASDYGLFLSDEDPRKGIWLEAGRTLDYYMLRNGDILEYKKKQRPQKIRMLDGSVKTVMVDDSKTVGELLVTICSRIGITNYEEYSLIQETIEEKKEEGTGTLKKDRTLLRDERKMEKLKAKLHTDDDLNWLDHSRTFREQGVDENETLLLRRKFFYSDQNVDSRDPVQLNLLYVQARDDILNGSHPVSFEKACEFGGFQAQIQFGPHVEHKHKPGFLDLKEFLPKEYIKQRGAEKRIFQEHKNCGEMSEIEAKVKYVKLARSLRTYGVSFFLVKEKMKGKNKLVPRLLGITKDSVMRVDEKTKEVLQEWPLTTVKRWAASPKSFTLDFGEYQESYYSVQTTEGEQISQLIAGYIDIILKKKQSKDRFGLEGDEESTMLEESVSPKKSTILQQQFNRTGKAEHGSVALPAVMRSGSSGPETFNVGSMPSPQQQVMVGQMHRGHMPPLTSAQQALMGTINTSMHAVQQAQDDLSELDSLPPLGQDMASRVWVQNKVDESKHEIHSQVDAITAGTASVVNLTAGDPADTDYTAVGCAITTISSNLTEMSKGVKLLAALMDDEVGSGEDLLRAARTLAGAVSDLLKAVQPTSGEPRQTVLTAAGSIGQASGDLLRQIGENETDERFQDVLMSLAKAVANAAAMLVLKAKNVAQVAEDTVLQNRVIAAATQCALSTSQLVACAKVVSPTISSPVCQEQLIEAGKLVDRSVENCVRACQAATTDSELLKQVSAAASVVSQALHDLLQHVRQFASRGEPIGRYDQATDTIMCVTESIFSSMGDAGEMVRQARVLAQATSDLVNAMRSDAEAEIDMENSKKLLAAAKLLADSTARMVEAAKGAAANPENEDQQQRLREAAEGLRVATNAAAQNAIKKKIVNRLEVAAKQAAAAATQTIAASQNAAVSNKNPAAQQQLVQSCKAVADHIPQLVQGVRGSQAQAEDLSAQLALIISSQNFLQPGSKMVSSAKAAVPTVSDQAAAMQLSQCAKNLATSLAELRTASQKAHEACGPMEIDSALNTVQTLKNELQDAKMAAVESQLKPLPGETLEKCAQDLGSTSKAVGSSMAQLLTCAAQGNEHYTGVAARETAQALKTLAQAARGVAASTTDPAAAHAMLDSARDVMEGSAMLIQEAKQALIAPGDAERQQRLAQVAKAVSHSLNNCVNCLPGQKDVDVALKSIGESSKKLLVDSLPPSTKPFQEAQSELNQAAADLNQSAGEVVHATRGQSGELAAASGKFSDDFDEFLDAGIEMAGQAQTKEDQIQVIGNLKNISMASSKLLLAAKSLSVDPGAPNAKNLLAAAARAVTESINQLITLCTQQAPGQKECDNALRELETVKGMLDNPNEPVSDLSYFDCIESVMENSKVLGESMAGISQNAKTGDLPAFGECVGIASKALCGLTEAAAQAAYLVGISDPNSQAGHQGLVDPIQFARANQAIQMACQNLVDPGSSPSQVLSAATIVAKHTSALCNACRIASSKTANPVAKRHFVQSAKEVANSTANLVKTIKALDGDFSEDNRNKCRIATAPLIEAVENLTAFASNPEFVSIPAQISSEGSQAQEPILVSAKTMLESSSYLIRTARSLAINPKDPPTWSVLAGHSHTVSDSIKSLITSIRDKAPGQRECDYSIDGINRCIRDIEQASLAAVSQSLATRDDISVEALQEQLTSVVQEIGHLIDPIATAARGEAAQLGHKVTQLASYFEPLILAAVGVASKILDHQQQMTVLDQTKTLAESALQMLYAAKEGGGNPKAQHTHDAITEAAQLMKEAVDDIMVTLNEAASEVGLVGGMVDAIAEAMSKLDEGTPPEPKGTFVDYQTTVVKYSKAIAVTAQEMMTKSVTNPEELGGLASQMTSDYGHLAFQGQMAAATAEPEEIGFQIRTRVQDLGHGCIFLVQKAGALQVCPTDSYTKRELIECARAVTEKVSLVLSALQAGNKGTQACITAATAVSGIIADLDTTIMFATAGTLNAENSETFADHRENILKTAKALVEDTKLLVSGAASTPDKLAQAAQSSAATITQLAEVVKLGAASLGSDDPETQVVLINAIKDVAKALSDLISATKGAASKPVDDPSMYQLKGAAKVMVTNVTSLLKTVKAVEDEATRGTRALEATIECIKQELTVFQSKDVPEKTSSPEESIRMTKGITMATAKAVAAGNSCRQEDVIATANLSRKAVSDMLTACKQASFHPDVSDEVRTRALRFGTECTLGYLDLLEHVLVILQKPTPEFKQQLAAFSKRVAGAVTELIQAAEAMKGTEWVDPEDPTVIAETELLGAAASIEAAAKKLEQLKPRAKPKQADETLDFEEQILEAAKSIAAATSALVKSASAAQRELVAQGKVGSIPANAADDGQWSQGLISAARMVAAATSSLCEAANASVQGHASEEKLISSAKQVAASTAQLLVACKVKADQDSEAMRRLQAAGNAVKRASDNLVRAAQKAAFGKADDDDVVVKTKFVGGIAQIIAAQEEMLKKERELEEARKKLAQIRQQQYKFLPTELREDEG
UniProt Q14186: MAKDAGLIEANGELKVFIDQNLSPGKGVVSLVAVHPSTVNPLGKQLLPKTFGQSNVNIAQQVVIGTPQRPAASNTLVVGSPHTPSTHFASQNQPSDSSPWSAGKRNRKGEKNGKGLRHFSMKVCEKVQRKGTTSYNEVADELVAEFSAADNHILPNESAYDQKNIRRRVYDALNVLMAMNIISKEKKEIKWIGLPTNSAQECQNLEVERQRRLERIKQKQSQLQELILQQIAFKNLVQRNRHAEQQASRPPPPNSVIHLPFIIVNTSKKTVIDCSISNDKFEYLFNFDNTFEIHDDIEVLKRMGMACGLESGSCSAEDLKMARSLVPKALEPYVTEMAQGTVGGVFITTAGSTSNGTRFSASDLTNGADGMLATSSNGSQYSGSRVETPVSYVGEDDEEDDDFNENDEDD

| Target | dose-dependent thermal stabilisation call |
| --- | --- |
| TGFBR1 (UniProt P36897) | inactive: 0 |
| TLE4 (UniProt Q04727) | inactive: 0 |
| TMEM9B (UniProt Q9NQ34) | inactive: 0 |
| TMCO3 (UniProt Q6UWJ1) | inactive: 0 |
| TFIP11 (UniProt Q9UBB9) | inactive: 0 |
| TAPBPL (UniProt Q9BX59) | inactive: 0 |
| TIMM9 (UniProt Q9Y5J7) | inactive: 0 |
| TNIP1 (UniProt Q15025) | inactive: 0 |
| TMED9 (UniProt Q9BVK6) | inactive: 0 |
| THYN1 (UniProt Q9P016) | inactive: 0 |
| TMTC3 (UniProt Q6ZXV5) | inactive: 0 |
| THOP1 (UniProt P52888) | inactive: 0 |
| TFB2M (UniProt Q9H5Q4) | inactive: 0 |
| TM9SF3 (UniProt Q9HD45) | inactive: 0 |
| TES (UniProt Q9UGI8) | inactive: 0 |
| TGDS (UniProt O95455) | inactive: 0 |
| TPK1 (UniProt Q9H3S4) | inactive: 0 |
| TMEM201 (UniProt Q5SNT2) | inactive: 0 |
| THOC3 (UniProt Q96J01) | inactive: 0 |
| TMEM55B (UniProt Q86T03) | inactive: 0 |
| TBC1D20 (UniProt Q96BZ9) | inactive: 0 |
| TOMM20 (UniProt Q15388) | inactive: 0 |
| TLN2 (UniProt Q9Y4G6) | inactive: 0 |
| TFDP1 (UniProt Q14186) | inactive: 0 |
| TCIRG1 (UniProt Q13488) | inactive: 0 |
| TBC1D15 (UniProt Q8TC07) | inactive: 0 |
| TCF12 (UniProt Q99081) | inactive: 0 |

Quoted from above (2 entries):

| Target | dose-dependent thermal stabilisation call |
| --- | --- |
| TPK1 (UniProt Q9H3S4) | inactive: 0 |
| TMEM201 (UniProt Q5SNT2) | inactive: 0 |
